9 molecules from PubChem BioAssay (NCATS) can be followed below.

“And” between values parts separate entries of the source, which are not always exact repeats. Equal values may be shown once. This is one part of the list. The main result of the screen is listed elsewhere. These columns were measured beside it and carry no call. Most of these compounds were active or inconclusive in the main read-out, so they are no random draw. For some assays here: The note in brackets gives the kind of curve behind each potency; many fits are weak.

What is called AC50 is the concentration at which the activity in the assay is half-maximal.

Assay [1] is described as follows: qHTS assay for small molecule antagonists of androgen receptor signaling (AID 588516). The following applies: AR-UAS-bla HEK293, beta-lactamase ratio, antagonist mode, 16 h. In outline:
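Cells were plated and incubated 5 h, compounds added in titration, then R1881 (10 nM final) as agonist. After 16 h at 37 C, CCF4 substrate was loaded for 2 h at room temperature and fluorescence measured.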
A general note: In qHTS, concentration-response curves come from the screen itself.

Assay [2] is described as follows: qHTS assay for small molecule antagonists of peroxisome proliferator-activated receptor delta signaling (AID 588535).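 Note: cells co-treated with a PPAR-delta agonist as stimulator during compound exposure.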 The settings on record: HEK293T PPARd-UAS-bla, beta-lactamase FRET ratio, 18 h; 460 nm channel. In outline: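 Antagonist-mode qHTS using GeneBLAzer PPAR-delta-UAS-bla HEK293T cells; compound exposure 18 hrs at 37 C over a titration. Ratiometric CCF4 fluorescence at 460/530 nm; concentration-response points fitted to the Hill equation.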

Assay [3] in a line: qHTS assay for small molecule antagonists of peroxisome proliferator-activated receptor gamma signaling (AID 588537). The following applies: HEK293 PPARg-UAS-bla, beta-lactamase ratio, antagonist mode; measured here: W460 blue channel. In short, it runs like this:
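Cell-based beta-lactamase assay; GW9662 served as the antagonist control. Stimulation used rosiglitazone, final 50 nM, 16 h, 37 C.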

The nature of assay [4]: qHTS assay for small molecule antagonists of vitamin D receptor signaling (AID 588541). The settings on record: HEK293T VDR-UAS-bla, beta-lactamase ratio, antagonist mode; measured here: W460 blue channel (cell viability).
Assay [5] can be described thus: qHTS assay for small molecule agonists of retinoid X receptor alpha signaling (AID 588544). The following applies: HEK293T RXRa-UAS-bla, beta-lactamase reporter, 18 h; 530 nm emission.
Assay [6] in a line: qHTS assay for small molecule antagonists of retinoid X receptor alpha signaling (AID 588546).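 Note: cells stimulated with 9-cis-retinoic acid as agonist; % is set by controls: 0 for no effect and ±100 for the full control effect.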 The settings on record: HEK293T RXRa-UAS-bla, beta-lactamase ratio, antagonist mode; measured here: W530 green channel, cytotoxicity proxy. In short, it runs like this: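 Beta-lactamase reporter inhibition, read as CCF4 fluorescence ratio (ex 405, em 460/530 nm) after 2 h at RT. HEK293T UAS-bla cells, 2500/well, were stimulated with 9-cis-RA at 500 or 100 nM final alongside test compound for 18 h at 37 C.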

The nature of assay [7]: qHTS assay for small molecule antagonists of glucocorticoid receptor signaling (AID 588533). The settings on record: HeLa MMTV-bla, GRE beta-lactamase ratio, antagonist mode, 18 h; measured here: W530 channel AC50.
Assay [8] is described as follows: Nrf2 qHTS screen for inhibitors: Validation (AID 493153). The settings on record: A549 ARE-Fluc reporter, 18-24 h; AC50: CellTiter-Fluor fluorescence read, measured here: cytotoxicity CellTiter-Fluor AC50; viability change: measured here: cytotoxicity max response. In outline: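 Concentration-response test in A549 ARE_Fluc reporter cells (5% FBS OPTI-MEM), compound exposure 18-24 h at 37°C, 5% CO2. Cell viability measured first by CellTiter-Fluor fluorescence; ARE-driven luciferase luminescence then measured as Nrf2 activity.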

Setting [9] is: measured here: W460 blue channel fit.
Where [10] appears, read: measured here: W530 green channel, cytotoxicity/artifact.

With `Nc1c(Cl)cc([N+](=O)[O-])cc1Cl`, the AC50 in assay [1] (setting [9]) is 44.7 µM [falling, partial curve, poor fit]; in assay [1] (setting [10]) it was 14.1 µM [rising, partial curve, poor fit].

On to `C1CC[CH]([Sn]([CH]2CCCCC2)[CH]2CCCCC2)CC1`, for which the AC50 in assay [1] (setting [9]) is 28.2 µM [falling, full curve, poor fit]; in assay [1] (setting [10]) it was 14.1 µM [rising, partial curve]; in assay [3], 17.8 µM [falling, full curve, poor fit]; in assay [4], 44.7 µM [falling, partial curve, poor fit]. Moreover, the max response was -32.1% in assay [2], 10.3% in assay [5] and -24.1% in assay [6].

In the case of `CCOP(=O)(NC(C)C)Oc1ccc(SC)c(C)c1` (stereo not given), the AC50 in assay [1] (setting [10]) is 50.1 µM [rising, single point]; in assay [7], 3.16 µM [falling, partial curve, poor fit]; in assay [3], 50.1 µM [falling, partial curve, poor fit]. In addition, the max response worked out at 38.6% in assay [2] and 22.6% in assay [5].

`O=C1C(Cl)=C(Cl)C(=O)C(Cl)=C1Cl`: the AC50 in assay [1] (setting [9]) was 12.6 µM [falling, full curve, poor fit]; in assay [1] (setting [10]), 26.8 µM [rising, partial curve]; in assay [3] it was 31.6 µM [falling, full curve, poor fit]; in assay [4] it was 2.82 µM [falling, full curve]. In addition, the max response in assay [5] is -21.9%; in assay [6], -27.3%.

On to `CCCCOC(=O)c1ccccc1C(=O)O`, for which the AC50 in assay [1] (setting [9]) is 0.355 µM [rising, full curve, poor fit].

On to `CO/N=C(/C(=O)OC)c1ccccc1COc1ccccc1C`, for which the AC50 in assay [1] (setting [9]) was 31.6 µM [falling, partial curve, poor fit]; in assay [1] (setting [10]), 25.1 µM [rising, partial curve, poor fit]. For the same molecule, the max response in assay [2] is -61.8%; in assay [6], 20.3%.

As for `O=C(O)CC[N+](=O)[O-]`, in assay [8], the viability change was -6.79%.

Turning to `N#CSCSC#N`, the AC50 in assay [1] (setting [9]) is 44.7 µM [falling, partial curve] and 25.1 µM [falling, full curve]; in assay [1] (setting [10]), 50.1 µM [rising, partial curve, poor fit] and 28.2 µM [rising, single point]; in assay [7], 31.6 µM [falling, single point] and 39.8 µM [falling, partial curve, poor fit]; in assay [3], 39.8 µM [falling, partial curve, poor fit] and 28.2 µM [falling, full curve]; in assay [4], 12.6 µM [falling, full curve, poor fit] and 10 µM [falling, full curve]. Also, the max response was -117% in assay [2]; -26.9% and -38% in assay [5]; -29.3% and -49.2% in assay [6].

With `CN(C)c1ccc(N)cc1`, in assay [1] (setting [9]), the AC50 is 56.2 µM [falling, partial curve, poor fit].
